According to US20160113911A1, “METHODS AND COMPOSITIONS FOR THE TREATMENT OF CANCER” (THE GENERAL HOSPITAL CORPORATION, priority 2013, published 2016):
Changes are numbered by the printed parent chain. Names and notes keep the numbering of the source.

B1: KDM4A WT: wild type KDM4A (major allele E482) (protein)
chain: MASESETLNPSARIMTFYPTMEEFRNFSRYIAYIESQGAHRAGLAKVVPPKEWKPRASYDDIDDLVIPAPIQQLVTGQSGLFTQYNIQKKAMTVREFRKIANSDKYCTPRYSEFEELERKYWKNLTFNPPIYGADVNGTLYEKHVDEWNIGRLRTILDLVEKESGITIEGVNTPYLYFGMWKTSFAWHTEDMDLYSINYLHFGEPKSWYSVPPEHGKRLERLAKGFFPGSAQSCEAFLRHKMTLISPLMLKKYGIPFDKVTQEAGEFMITFPYGYHAGFNHGFNCAESTNFATRRWIEYGKQAVLCSCRKDMVKISMDVFVRKFQPERYKLWKAGKDNTVIDHTLPTPEAAEFLKESELPPRAGNEEECPEEDMEGVEDGEEGDLKTSLAKHRIGTKRHRVCLEIPQEVSQSELFPKEDLSSEQYEMTECPAALAPVRPTHSSVRQVEDGLTFPDYSDSTEVKFEELKNVKLEEEDEEEEQEAAALDLSVNPASVGGRLVFSGSKKKSSSSLGSGSSRDSISSDSETSEPLSCRAQGQTGVLTVHSYAKGDGRVTVGEPCTRKKGSAARSFSERELAEVADEYMFSLEENKKSKGRRQPLSKLPRHHPLVLQECVSDDETSEQLTPEEEAEETEAWAKPLSQLWQNRPPNFEAEKEFNETMAQQAPHCAVCMIFQTYHQVEFGGFNQNCGNASDLAPQKQRTKPLIPEMCFTSTGCSTDINLSTPYLEEDGTSILVSCKKCSVRVHASCYGVPPAKASEDWMCSRCSANALEEDCCLCSLRGGALQRANDDRWVHVSCAVAILEARFVNIAERSPVDVSKIPLPRFKLKCIFCKKRRKRTAGCCVQCSHGRCPTAFHVSCAQAAGVMMQPDDWPFVVFITCFRHKIPNLERAKGALQSITAGQKVISKHKNGRFYQCEVVRLTTETFYEVNFDDGSFSDNLYPEDIVSQDCLQFGPPAEGEVVQVRWTDGQVYGAKFVASHPIQMYQVEFEDGSQLVVKRDDVYTLDEELPKRVKSRLSVASDMRFNEIFTEKEVKQEKKRQRVINSRYREDYIEPALYRAIME
modifications: left off: large carriers
B2: 2A-I87V: KDM4A mutation (protein)
chain: B1 chain with I87V, E482A
B3: 2A-E113K: KDM4A mutation (protein)
chain: B1 chain with E113K, E482A
B4: KDM4A SNP-A482: KDM4A germline variant E482A (protein)
chain: B1 chain with E482A
modifications: left off: large carriers; small tags and cut ends
notes: KDM4A germline variant E482A
B5: 2A-K123I: KDM4A mutation (protein)
chain: B1 chain with K123I, E482A

Test: Subcellular localization of KDM4 variants (immunofluorescence)
Assay type: cell-based
Details: for both nuclear and cytoplasmic / exclusively nuclear: % of the cells, transiently transfected GFP-tagged KDM4A; for Localization: KDM4A mutations, % nuclear

Molecule | both nuclear and cytoplasmic [%] | exclusively nuclear [%] | Localization
B1 | 15 | 85 | 
B2 |  |  | +++ (+++ indicates >80% nuclear)
B3 |  |  | +++ (+++ indicates >80% nuclear)
B4 | 49 | 51 | 
B5 |  |  | + (+ indicates 40-59% nuclear)
